Values of other authors as cited in US6663901B1, “Pellets having a core coated with an antifungal and a polymer” (Janssen Pharmaceutical N.V., priority 1998, dated 2003).
For at least one compound, name, drawing or mass did not settle the structure.

System: Aspergillus spp.
Conditions: compared with itraconazole

CCC(C)n1ncn(-c2ccc(N3CCN(c4ccc(OC[C@H]5CO[C@](Cn6cncn6)(c6ccc(F)cc6F)O5)cc4)CC3)cc2)c1=O (mixture of isomers) [saperconazole, (±)-cis-4-[4-[4-[4-[[2-(2,4-difluorophenyl)-2-(1H-1,2,4-triazol-1-ylmethyl)-1,3-dioxolan-4-yl]methoxy]phenyl]-1-piperazinyl]phenyl]-2,4-dihydro-2-(1-methoxypropyl)-3H-1,2,4-triazol-3-one]
activity against Aspergillus spp.: improved activity
